The record followed here is patent US20090104711A1, “FLUORESCENT MARKER COMPRISING DOUBLE BOND ESTER GROUP AND METHOD FOR MARKING AND DETECTING THE SAME” (priority 2005, published 2009).

The nature of this data set: Qualitative analysis using markers: fluorescence of marked kerosene oil after adding lithium methoxide. As to conditions: marker 10 ppm in kerosene oil; for Color: fluorescence colour, 7.5% lithium methoxide developer; for λmax (nm): fluorescence, 5 ml 7.5% lithium methoxide added to 50 ml, irradiation wavelength 350-570 nm per compound (Table 1 r6).

Regarding `CCCCCCCC/C=C\CCCCCCCC(=O)Oc1cc(=O)oc2ccccc12` [Example 1, 4-coumarin oleate], the Color result is on record as “blue” and the “λmax (nm)” value worked out at 471 nm.
The matching figures for `CCCCCCCCC=CCCCCCCCC(=O)Oc1ccc2ccc(=O)oc2c1` [Example 2, 7-coumarin oleate]: “blue” and 460 nm.
The matching figures for `CCCCCCCC/C=C\CCCCCCCC(=O)Oc1cc(=O)oc2ccc(Cl)cc12` [Example 3, 6-chloro-4-coumarin oleate]: “blue” and 460 nm.
The matching figures for `CCCCCCCC/C=C\CCCCCCCC(=O)Oc1ccc2c(C)cc(=O)oc2c1` [Example 4]: “blue” and 460 nm.
With `C=C(C)C(=O)Oc1ccc2c(c1)Oc1cc(OC(=O)C(=C)C)ccc1C21OC(=O)c2ccccc21` [Example 5, fluorescein dimethacrylate], the Color result is listed as “green” and the “λmax (nm)” value is given as 525 nm.
On to `CCCCCCCC/C=C\CCCCCCCC(=O)Oc1cc2c(cc1Cl)C1(OC(=O)c3ccccc31)c1cc(Cl)c(OC(=O)CCCCCCC/C=C\CCCCCCCC)cc1O2` [Example 7, 2,7-dichlorofluorescein dioleate], for which the Color entry is listed as “Reddish” and the “λmax (nm)” value was found to be 530 nm.
The matching figures for resorufin dicrotonylate [Example 8]: “red” and 572 nm.
Turning to resorufin dioleate [Example 9], the Color entry is on record as “red” and the “λmax (nm)” value stood at 572 nm.
